The other results are listed elsewhere or left out.
Columns and labels:
Test in all cases: glycan array binding signal (z-score within array); higher = stronger binding
Details in all cases: glycan notation: IUPAC condensed, linker removed
Gal3S(b1-4)Glc6S = molecular target: Gal3S(b1-4)Glc6S
Procedure, shortened: (§1)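 Columns mapping to the same glycan were averaged after glycan names were converted to IUPAC-condensed notation. The data come from 3228 arrays in the Consortium for Functional Glycomics database, limited to those with an available protein sequence. Binding is reported as a within-array Z-score averaged across arrays of one protein sequence and across linkers.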

Gal3S(b1-4)GlcNAc = molecular target: Gal3S(b1-4)GlcNAc
Procedure, shortened: as §1

[1] = molecular target: Gal3S(b1-4)[Fuc(a1-3)]Glc6S
Procedure, shortened: as §1

[2] = molecular target: Gal3S(b1-4)[Fuc(a1-3)]GlcNAc
Procedure, shortened: as §1

[3] = molecular target: Gal3S(b1-4)[Fuc(a1-3)]GlcNAc6S
Procedure, shortened: as §1

Gal3S4S(b1-4)GlcNAc = molecular target: Gal3S4S(b1-4)GlcNAc
Procedure, shortened: as §1

Gal3S6S(b1-4)GlcNAc = molecular target: Gal3S6S(b1-4)GlcNAc
Procedure, shortened: as §1

Gal3S6S(b1-4)GlcNAc6S = molecular target: Gal3S6S(b1-4)GlcNAc6S
Procedure, shortened: as §1

Gal4S(b1-4)GlcNAc = molecular target: Gal4S(b1-4)GlcNAc
Procedure, shortened: as §1

Gal4S6S(b1-4)GlcNAc = molecular target: Gal4S6S(b1-4)GlcNAc
Procedure, shortened: as §1

Gal6P(b1-4)GlcNAc = molecular target: Gal6P(b1-4)GlcNAc
Procedure, shortened: as §1

Gal6S(b1-3)GlcNAc = molecular target: Gal6S(b1-3)GlcNAc
Procedure, shortened: as §1

Gal6S(b1-3)GlcNAc6S = molecular target: Gal6S(b1-3)GlcNAc6S
Procedure, shortened: as §1

Gal6S(b1-4)Glc = molecular target: Gal6S(b1-4)Glc
Procedure, shortened: as §1

Gal6S(b1-4)Glc6S = molecular target: Gal6S(b1-4)Glc6S
Procedure, shortened: as §1

Gal6S(b1-4)GlcNAc = molecular target: Gal6S(b1-4)GlcNAc
Procedure, shortened: as §1

Gal6S(b1-4)GlcNAc6S = molecular target: Gal6S(b1-4)GlcNAc6S
Procedure, shortened: as §1

GalNAc(a1-3)Gal = molecular target: GalNAc(a1-3)Gal
Procedure, shortened: as §1

GalNAc(a1-3)GalNAc = molecular target: GalNAc(a1-3)GalNAc
Procedure, shortened: as §1

[4] = molecular target: GalNAc(a1-3)GalNAc(a1-3)Gal(a1-4)Gal(b1-4)GlcNAc
Procedure, shortened: as §1

[5] = molecular target: GalNAc(a1-3)GalNAc(b1-3)Gal(a1-4)Gal(b1-4)Glc
Procedure, shortened: as §1

GalNAc(b1-3)Gal = molecular target: GalNAc(b1-3)Gal
Procedure, shortened: as §1

[6] = molecular target: GalNAc(b1-3)Gal(a1-4)Gal(b1-4)GlcNAc
Procedure, shortened: as §1

[7] = molecular target: GalNAc(b1-3)Gal(a1-4)Gal(b1-4)GlcNAc(b1-3)Gal(b1-4)Glc
Procedure, shortened: as §1

[8] = molecular target: GalNAc(b1-3)Gal(a1-6)Gal(b1-4)Glc
Procedure, shortened: as §1

GalNAc(b1-3)GalNAc = molecular target: GalNAc(b1-3)GalNAc
Procedure, shortened: as §1

GalNAc(b1-3)GlcNAc = molecular target: GalNAc(b1-3)GlcNAc
Procedure, shortened: as §1

GalNAc(b1-4)Gal(b1-4)Glc = molecular target: GalNAc(b1-4)Gal(b1-4)Glc
Procedure, shortened: as §1

GalNAc(b1-4)GlcNAc = molecular target: GalNAc(b1-4)GlcNAc
Procedure, shortened: as §1

[9] = molecular target: GalNAc(b1-4)GlcNAc(b1-2)Man
Procedure, shortened: as §1

[10] = molecular target: GalNAc(b1-4)GlcNAc(b1-2)Man(a1-3)[GalNAc(b1-4)GlcNAc(b1-2)Man(a1-6)]Man(b1-4)GlcNAc(b1-4)GlcNAc
Procedure, shortened: as §1

[11] = molecular target: GalNAc(b1-4)GlcNAc(b1-3)GalNAc(b1-4)GlcNAc
Procedure, shortened: as §1

GalNAc(b1-4)GlcNAc6S = molecular target: GalNAc(b1-4)GlcNAc6S
Procedure, shortened: as §1

GalNAc(b1-6)GalNAc = molecular target: GalNAc(b1-6)GalNAc
Procedure, shortened: as §1

GalNAc3S(b1-4)GlcNAc = molecular target: GalNAc3S(b1-4)GlcNAc
Procedure, shortened: as §1

GalNAc3S(b1-4)GlcNAc3S = molecular target: GalNAc3S(b1-4)GlcNAc3S
Procedure, shortened: as §1

[12] = molecular target: GalNAc3S(b1-4)[Fuc(a1-3)]GlcNAc
Procedure, shortened: as §1

GalNAc4S6S(b1-4)GlcNAc = molecular target: GalNAc4S6S(b1-4)GlcNAc
Procedure, shortened: as §1

GalNAc6S(b1-4)GlcNAc = molecular target: GalNAc6S(b1-4)GlcNAc
Procedure, shortened: as §1

Glc(a1-4)Glc = molecular target: Glc(a1-4)Glc
Procedure, shortened: as §1

[13] = molecular target: Glc(a1-4)Glc(a1-4)Glc(a1-4)Glc
Procedure, shortened: as §1

Glc(a1-6)Glc(a1-6)Glc = molecular target: Glc(a1-6)Glc(a1-6)Glc
Procedure, shortened: as §1

[14] = molecular target: Glc(a1-6)Glc(a1-6)Glc(a1-6)Glc
Procedure, shortened: as §1

Glc(b1-4)Glc = molecular target: Glc(b1-4)Glc
Procedure, shortened: as §1

Glc(b1-6)Glc = molecular target: Glc(b1-6)Glc
Procedure, shortened: as §1

B1: Pbx1CASH domain (Cryptococcus neoformans) (protein)
chain: MDETKPLWGNPRADGISLACKDSIVERNVVYDATDGAIVLFGSAGSTVKNNHVYARTRVILGGINLVDYEPWDGDYTNVKVHHNHLYALGRYFKVGIVIGPASWSDDTESVVHSASVTDNEFSGGYWGYGIVVASAKNFEVLRNKVIWDGEQGVARFSGVPGS
glycan array binding signal (z-score) (Gal3S(b1-4)Glc6S): 0.01
glycan array binding signal (z-score) (Gal3S(b1-4)GlcNAc): -0.115
glycan array binding signal (z-score) [1]: 0.604
glycan array binding signal (z-score) [2]: -0.504
glycan array binding signal (z-score) [3]: 0.19
glycan array binding signal (z-score) (Gal3S4S(b1-4)GlcNAc): -0.228
glycan array binding signal (z-score) (Gal3S6S(b1-4)GlcNAc): -0.224
glycan array binding signal (z-score) (Gal3S6S(b1-4)GlcNAc6S): 1.02
glycan array binding signal (z-score) (Gal4S(b1-4)GlcNAc): -0.788
glycan array binding signal (z-score) (Gal4S6S(b1-4)GlcNAc): -0.132
glycan array binding signal (z-score) (Gal6P(b1-4)GlcNAc): -0.384
glycan array binding signal (z-score) (Gal6S(b1-3)GlcNAc): -0.878
glycan array binding signal (z-score) (Gal6S(b1-3)GlcNAc6S): -0.488
glycan array binding signal (z-score) (Gal6S(b1-4)Glc): -0.195
glycan array binding signal (z-score) (Gal6S(b1-4)Glc6S): 0.884
glycan array binding signal (z-score) (Gal6S(b1-4)GlcNAc): -0.404
glycan array binding signal (z-score) (Gal6S(b1-4)GlcNAc6S): -0.284
glycan array binding signal (z-score) (GalNAc(a1-3)Gal): 0.032
glycan array binding signal (z-score) (GalNAc(a1-3)GalNAc): -0.916
glycan array binding signal (z-score) [4]: 0.621
glycan array binding signal (z-score) [5]: 1.06
glycan array binding signal (z-score) (GalNAc(b1-3)Gal): -0.556
glycan array binding signal (z-score) [6]: 0.058
glycan array binding signal (z-score) [7]: -0.154
glycan array binding signal (z-score) [8]: -0.333
glycan array binding signal (z-score) (GalNAc(b1-3)GalNAc): -0.471
glycan array binding signal (z-score) (GalNAc(b1-3)GlcNAc): -0.202
glycan array binding signal (z-score) (GalNAc(b1-4)Gal(b1-4)Glc): 1.53
glycan array binding signal (z-score) (GalNAc(b1-4)GlcNAc): -0.736
glycan array binding signal (z-score) [9]: -0.748
glycan array binding signal (z-score) [10]: -0.309
glycan array binding signal (z-score) [11]: 0.515
glycan array binding signal (z-score) (GalNAc(b1-4)GlcNAc6S): -0.586
glycan array binding signal (z-score) (GalNAc(b1-6)GalNAc): -0.495
glycan array binding signal (z-score) (GalNAc3S(b1-4)GlcNAc): -0.852
glycan array binding signal (z-score) (GalNAc3S(b1-4)GlcNAc3S): 0.07
glycan array binding signal (z-score) [12]: -0.755
glycan array binding signal (z-score) (GalNAc4S6S(b1-4)GlcNAc): -0.562
glycan array binding signal (z-score) (GalNAc6S(b1-4)GlcNAc): 0.021
glycan array binding signal (z-score) (Glc(a1-4)Glc): -0.667
glycan array binding signal (z-score) [13]: -0.661
glycan array binding signal (z-score) (Glc(a1-6)Glc(a1-6)Glc): -0.614
glycan array binding signal (z-score) [14]: 0.583
glycan array binding signal (z-score) (Glc(b1-4)Glc): 0.13
glycan array binding signal (z-score) (Glc(b1-6)Glc): -0.309
